In experiment [1] the target is GAL4^AD-IN(1-210) hybrid protein (GAL4 activation domain fused to HIV integrase amino acids 1-210) (HIV). The experiment in a line: yeast two-hybrid, description of plasmid TSB413.
Experiment [2] has the same target. The experiment in a line: yeast two-hybrid, description of plasmid TSB400/pBal26.

These are yes or no findings as the source states them, for the method shown. Some binding calls cover weakened binding; strength is not graded here. Tags and fused reporters may be left off the sequences shown.

B1: GAL4^BD-PR^LBD-INF5 hybrid protein (GAL4 DNA binding domain fused to the progesterone receptor ligand binding domain and the HIV integrase inhibitory peptide … (other)
chain: MKLLSSIEQACDICRLKKLKCSKEKPKCAKCLKNNWECRYSPKTKRSPLTRAHLTEVESRLERLEQLFLLIFPREDLDMILKMDSLQDIKALLTGLFVQDNVNKDAVTDRLASVETDMPLTLRQHRISATSSSEESSNKGQRQLTVSPVLQYPALTMIQLIPPLINLLMSIEPDVIYAGHDNTKPDTSSSLLTSLNQLGERQLLSVVKWSKSLPGFRNLHIDDQITLIQYSWMSLMVFGLGWRSYKHVSGQMLYFAPDLILNEQRMKESSFYSLCLTMWQIPQEFVKLQVSQEEFLCMKVLLLLNTIPLEGLRSQTQFEEMRSSYIRELIKAIGLRQKGVVSSSQRFYQLTKLLDNLHDLVKQLHLYCLNTFIQSRALSVEFPEMMSEVIAAQLPKILAGMVKPLLFHKALYETILILLFLDVDT
notes: also called GAL4^BD-PR^LBD-IN5
B1: the binding entry in experiment [1] and in experiment [2] was “binds” each time.

Values taken from patent US20130035255A1, “CONTROLLED RELEASE HYBRID SYSTEMS” (priority 2010, published 2013).
